Results on 2 substances are retold here after paper PMC7212649, “An arrestin-1 surface opposite of its interface with photoactivated rhodopsin engages with enolase-1” (The Journal of Biological Chemistry, 2020).

Sequences of proteins named here, by UniProt entry; tags and fusion partners are left off.
UniProt P02699: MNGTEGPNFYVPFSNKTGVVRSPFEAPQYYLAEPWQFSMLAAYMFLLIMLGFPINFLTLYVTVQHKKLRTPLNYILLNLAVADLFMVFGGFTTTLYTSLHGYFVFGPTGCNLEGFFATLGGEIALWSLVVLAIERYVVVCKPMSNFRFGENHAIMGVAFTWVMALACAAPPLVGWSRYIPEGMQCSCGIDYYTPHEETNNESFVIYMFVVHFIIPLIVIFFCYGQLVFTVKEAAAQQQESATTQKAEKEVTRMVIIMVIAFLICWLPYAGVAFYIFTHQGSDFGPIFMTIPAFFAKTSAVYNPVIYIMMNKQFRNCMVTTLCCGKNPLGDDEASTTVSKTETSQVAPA
UniProt Q9XSJ4: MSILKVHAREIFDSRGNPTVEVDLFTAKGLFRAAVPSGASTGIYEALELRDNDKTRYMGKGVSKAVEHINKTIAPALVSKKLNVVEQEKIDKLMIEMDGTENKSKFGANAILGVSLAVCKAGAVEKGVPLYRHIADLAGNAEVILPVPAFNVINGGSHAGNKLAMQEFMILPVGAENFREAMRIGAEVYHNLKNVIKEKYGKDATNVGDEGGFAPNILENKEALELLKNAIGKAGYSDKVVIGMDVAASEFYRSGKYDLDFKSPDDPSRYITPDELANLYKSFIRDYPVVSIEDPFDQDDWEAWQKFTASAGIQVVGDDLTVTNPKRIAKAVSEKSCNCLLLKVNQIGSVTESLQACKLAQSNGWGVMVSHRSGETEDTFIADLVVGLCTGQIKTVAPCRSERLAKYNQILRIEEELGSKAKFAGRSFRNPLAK

Results are given in words; binding and its absence hold for the method and conditions named. For some assays here: Binding seen in cells or lysates may run through a third protein. Some results given as binding are weak or reduced against the parent protein; the word gives no strength.

For assay [1], the target named is arrestin-1 "3A" (F375A/V376A/F377A) (bovine) (UniProt P08168). The experiment in a line: co-IP; 5 μM arrestin-1 (or mutant) with 5 μM enolase-1–Alexa 546 in LAP200N, 2 h at 4 °C; captured by C10C10 anti-arrestin-1 mAb on Protein G magnetic beads for 16 h, 10 washes, eluted at pH 2.5; fluorescence of captured enolase-1 read; both purified.
Assay [2] addresses phosphorylated rhodopsin kept in the dark, in rod disc membranes (UniProt P02699). The assay is described as follows: co-sedimentation; 2 μM arrestin-1 with or without 2 μM enolase-1/GFP mixed with 5 μM pRho in rod disc membranes, dark or light for 1 min; 18,000 x g 15 min; pellet on 12% SDS-PAGE, Coomassie; only the binder purified.

As to “enolase-1 labeled with Alexa Fluor 546 (from UniProt Q9XSJ4 1-434) (enzyme)”, the binding entry in assay [1] is listed as “binds”.

For “enolase-1/GFP fusion (from UniProt Q9XSJ4 1-434) (enzyme)”, the binding entry in assay [2] is recorded as “no binding (tested: 2 μM enolase-1/GFP, 5 μM pRho)”.
